The term AC50 denotes the concentration giving half of the maximal activity seen.

Some of the results follow. Shown are side measurements of this screen, not its main read-out; they come without a call. The list favours compounds with an active or inconclusive main result. Words in brackets tell the shape of the fitted curve; partial curves, single points and poor fits give uncertain potencies.

Among the data in PubChem BioAssay AID493014 (National Center for Advancing Translational Sciences (NCATS), 2011) are AC50 values, retold here.

The assay in a line: qHTS Assay to Find Inhibitors of Chronic Active B-Cell Receptor Signaling. The conditions noted are these: ABC-DLBCL IkBa-CBG/CBR reporter, luminescence ratio (green luciferase fused to IkBa over red control in TMD8 lymphoma cells), 4 h. A digest of the protocol: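 TMD8 ABC-DLBCL cells carrying doxycycline-inducible green luciferase fused to IkappaBalpha plus unfused red luciferase were exposed to compounds (up to 46 uM) for 4 hrs at 37C. Activity came from the overlap-corrected green/red luminescence ratio.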

Setting [1] is: measured here: IkBa-CBG green luminescence.
Where [2] appears, read: measured here: CBR red luminescence, cell number.

Regarding `COc1ccc2c(c1)CCc1c(C(=O)NCCc3ccc(OC)c(OC)c3)noc1-2`, the concentration at half-maximal activity (AC50) under setting [1] was 13 µM [falling, partial curve, poor fit]. With `COC(=O)c1cc(OC)c(OC)cc1NC(=O)CC1CCCCC1`, the half-maximal activity concentration (AC50) under setting [2] was 20.6 µM [rising, single point]. Still for that read-out and setting: the same measure for `COc1ccc(N2CCN(C(=O)C(Cc3ccccc3)n3cccc3)CC2)cc1` (configuration not stated): 6.51 µM [rising, single point]; for `Cc1ccc(-n2cc(CNC(C)c3cnn(C)c3C)c(-c3ccc(F)cc3)n2)cc1` (configuration not stated): 3.16 µM [rising, partial curve, poor fit]; for `COc1ccccc1C(=O)Nc1ccc2c(c1)CN(Cc1cnc(C)s1)CC2`: 17.8 µM [falling, single point]. Same read-out and setting: the same measure for `CCN(CC)CCOC(=O)c1cccc(OC)c1`: 9.2 µM [rising, partial curve, poor fit]. Same read-out and setting: the same measure for `O=C(NN=C(Cc1ccccc1)Cc1ccccc1)c1ccccc1O`: 1.12 µM [falling, full curve]. Turning to `O=C(N/N=C/C1CC=CCC1)c1ccc(Cl)cc1O` (configuration not stated), the AC50 under setting [2] is 0.517 µM [falling, full curve]. As for `O=C(NCCN1CCc2ccccc2C1)Nc1ccc([N+](=O)[O-])cc1`, under setting [2], the AC50 is 10 µM [rising, single point]. Same read-out and setting: the same measure for `O=C(COC(=O)c1cccc(S(=O)(=O)N2CCc3ccccc32)c1)NC1CCS(=O)(=O)C1` (configuration not stated): 5.17 µM [rising, full curve, poor fit]; for `Cc1ccc(-c2nn(-c3ccccc3)cc2/C=N/NC(=O)c2ccc(Br)o2)cc1`: 10 µM [rising, partial curve, poor fit]. Still for that read-out and setting: the same measure for `CC1(C)C2CCC1(C)C(OC(=O)c1ccc(O)cc1)C2` (configuration not stated): 35.5 µM [rising, single point]; for `Nc1ccc(C(=O)Nc2cccc(NC(=O)c3ccc(N)cc3)c2)cc1`: 3.98 µM [falling, full curve, poor fit]. On the same count and under the same terms, the same measure for `CC(C)OC(=O)CC12CN3CC(CC(=O)OC(C)C)(CN(C1)C(=O)c1ccccc1C3=O)C2=O`: 35.5 µM [rising, single point]; for `O=[N+]([O-])c1ccc2c(c1)Nc1nc3ccccc3nc1N2`: 10 µM [rising, partial curve, poor fit]. `COc1cccc(N/C(N)=N/c2nc(C(F)(F)F)cc(C(F)(F)F)n2)c1`: the concentration at half-maximal activity (AC50) is 7.08 µM [falling, partial curve] under setting [2] and 14.1 µM [rising, partial curve, poor fit] under setting [1].

As for `CCOC(=O)c1ccccc1NC(=O)Cn1c(-c2nonc2N)nc2ccccc21`, the AC50 was 10 µM [rising, partial curve, poor fit] under setting [2] and 12.6 µM [falling, partial curve] under setting [1]. Turning to `CCOc1ccc(C(=O)CC(C(=O)O)N2CCN(Cc3ccccc3)CC2)cc1` (configuration not stated), under setting [2], the AC50 is 29.1 µM [falling, single point]. Take `O=C(c1ccccc1)c1ccc2c(c1)OCCOCCOCCO2`: the AC50 under setting [2] was 11.2 µM [falling, single point]. `O=C(/C=C/c1ccco1)NCCc1ccccc1`: the concentration at half-maximal activity (AC50) under setting [2] is 7.94 µM [falling, partial curve]. The same measure, in the same setting: the value for `O=C(CSc1nc2ccccc2c(=O)[nH]1)Nc1ccccc1O` was 35.5 µM [falling, single point]; that for `CCN(CC)c1ccc(NC(=O)c2cnn(CC)c2)cc1` was 1.78 µM [rising, partial curve, poor fit]; that for `CCc1nc(CN2CCCC(C(=O)c3ccc4c5c(cccc35)CC4)C2)c(C)[nH]1` (configuration not stated) was 0.398 µM [falling, full curve, poor fit].

`O=C(O)COc1ccc(-c2nccc(-c3ccccn3)n2)cc1`: the AC50 under setting [2] is 17.8 µM [falling, single point]. Same read-out and setting: the same measure for `Cc1cccc(-c2noc(CCC(=O)NC3CCCC3)n2)c1`: 7.94 µM [rising, partial curve, poor fit]; for `Cc1cc(C)c(NC(=O)c2cccc3c2C(=O)N(C2CCCCC2)C3)c(C)c1`: 31.6 µM [rising, partial curve, poor fit]; for `CCOc1c(Cl)cc(C(=O)Nc2cccc(C(=O)O)c2)cc1Cl`: 35.5 µM [falling, single point]. Turning to `COc1cc(/C=C(\C#N)c2nc3ccc(C)cc3[nH]2)cc([N+](=O)[O-])c1O`, the AC50 under setting [1] is 35.5 µM [rising, partial curve, poor fit]. For `N#Cc1c(=O)c2nc(NCc3ccccc3)ncc2n2ccccc12`, under setting [2], the AC50 was 5.8 µM [falling, full curve, poor fit]. On to `N#CC1=C(N)Oc2c(ccc3cccnc23)C1c1ccncc1` (configuration not stated), for which the AC50 under setting [2] is 35.5 µM [falling, single point]. The same measure, in the same setting: the value for `CSc1nc(-c2ccc(Cl)cc2)c(C#N)c(=O)[nH]1` was 31.6 µM [rising, single point].

On to `CCOc1cc(Br)cc(/C=C2\SC(=Nc3ccccc3)NC2=O)c1O`, for which the AC50 under setting [2] was 3.55 µM [falling, full curve, poor fit].

As for `O=C(O)CCc1ccc(-c2ccccc2)n1-c1cccc(O)c1`, the AC50 under setting [2] was 2.59 µM [rising, full curve, poor fit]. Take `Cc1ccc(N2CCN(C(=O)N3CCCC3)CC2)cc1C`: the AC50 under setting [2] was 7.31 µM [falling, single point]. The same measure, in the same setting: the value for `O=C(COC(=O)c1cc(-c2ccc(F)cc2)nc2ccccc12)NCC1CCCO1` (configuration not stated) was 0.501 µM [falling, full curve, poor fit]; that for `Cc1cc(C)cc(NC(=O)CN2C(=O)c3ccccc3Sc3ccc(C(=O)N4CCOCC4)cc32)c1` was 12.6 µM [falling, partial curve]; that for `Cc1ccc2nc(N/N=C/c3ccco3)cc(C)c2c1` was 5.62 µM [rising, single point]. The same measure, in the same setting: the same measure for `C=CCc1ccccc1OCC(O)CN1CCN(c2ccc(C)cc2)CC1` (configuration not stated): 12.6 µM [rising, single point]; for `CCNC(=O)COc1ccc(-c2ccccc2)cc1`: 3.66 µM [rising, full curve, poor fit]; for `CCc1ccc2[nH]c(C(=O)Nc3ccc4c(c3)OCO4)cc2c1`: 17.8 µM [falling, single point]. Still for that read-out and setting: the value for `Oc1[nH]c(=S)sc1C=C1N=c2ccccc2=N1` was 17.8 µM [falling, single point]. Consider `Cc1cc(NC(=O)CN2C(=O)NC3(CCCCCC3)C2=O)ccc1Br`, for which, under setting [2], the AC50 is 20.6 µM [falling, single point]. With `Nc1ncnc2nc(SCc3ccc(Cl)cc3Cl)[nH]c12`, under setting [2], the AC50 was 16.4 µM [rising, single point]. On to `CCOC(=O)C1CCN(c2cc(=O)n(C3CCCCC3)c(=O)[nH]2)CC1`, for which, under setting [2], the AC50 is 2.24 µM [rising, partial curve, poor fit]. For `COC(=O)c1[nH]c2cc(C)ccc2c1NC(=O)CN1CCCc2ccccc21`, the AC50 under setting [2] was 3.55 µM [rising, single point]. As for `COc1ccccc1NC(=O)Nc1nnc(Cc2ccccc2F)s1`, the AC50 under setting [2] was 35.5 µM [rising, single point].

Take `CC(C)(C)OC(=O)n1cc(/C=N/NC(=O)c2ccco2)c2ccccc21`: the AC50 under setting [2] was 35.5 µM [falling, single point]. As for `COc1ccccc1/C=N/NC(=O)CSc1ccc2ccccc2n1`, the AC50 under setting [2] was 35.5 µM [falling, partial curve, poor fit].

Take `Cc1cccc(NC(=O)C2SC(=Nc3c(C)cccc3C)C(C(=O)N3CCOCC3)=C2N)c1` (configuration not stated): the AC50 under setting [2] was 10.3 µM [falling, partial curve].

With `N#C/C(=C1\CCCN1)c1nc(-c2ccccc2)cs1`, the AC50 under setting [2] was 0.731 µM [rising, partial curve, poor fit]. Same read-out and setting: the value for `Cc1ccc(C)c(S(=O)(=O)N2CCN(C(=O)c3n[nH]c(=O)c4ccccc34)CC2)c1` was 1.3 µM [falling, partial curve, poor fit]; that for `CCn1c(SCC(=O)c2ccc(C)cc2)nnc1-c1ccncc1` was 7.31 µM [falling, partial curve, poor fit]; that for `Cc1ccc(S(=O)(=O)Cn2cnnn2)cc1` was 0.501 µM [rising, full curve, poor fit].

`CCCCNC(=S)NNC(=O)C1=NN(c2cc(C)ccc2C)C(=O)CC1`: the concentration at half-maximal activity (AC50) under setting [2] is 35.5 µM [falling, single point]. Take `Cc1ccc2nc(Nc3nc(=O)c4ccccc4n3C)nc(C)c2c1`: the AC50 under setting [2] is 0.282 µM [falling, full curve]. Same read-out and setting: the same measure for `FC(F)Oc1ccc(-c2csc(NNC3=NCCCCC3)n2)cc1`: 0.2 µM [rising, full curve, poor fit]; for `O=C(COC(=O)C12CC3CC(CC(Cl)(C3)C1)C2)Nc1ccccc1`: 0.116 µM [rising, full curve, poor fit]; for `Cc1cnc(C(=O)OCC(=O)Nc2ccc(Cl)cn2)cn1`: 3.66 µM [falling, full curve]. Turning to `Nc1nc(SCC(=O)Nc2ccc(OC(F)(F)F)cc2)[nH]c(=O)c1NC(=O)c1ccc(Br)o1`, the AC50 under setting [2] was 25.1 µM [falling, partial curve, poor fit]. With `CCOC(=O)C1=C(N)n2c(s/c(=C\c3cccs3)c2=O)=C(C(=O)OCC)C1c1cccs1` (configuration not stated), the AC50 was 14.1 µM [rising, partial curve] under setting [2] and 12.6 µM [falling, partial curve, poor fit] under setting [1]. As for `O=C(Cc1cccs1)Nc1cccc(-c2nc3cc4ccccc4cc3[nH]2)c1`, the AC50 is, setting by setting: under setting [2], 0.326 µM [falling, partial curve, poor fit]; under setting [1], 23.1 µM [rising, partial curve, poor fit]. Regarding `O=C(CN1CCN(c2ccc(F)cc2)CC1)c1ccc2c(c1)OCO2`, the AC50 under setting [2] was 35.5 µM [falling, single point]. On the same count and under the same terms, the value for `CCN(Cc1ccc2c(c1)OCCO2)C(=O)CSc1nc(C)nc2sc(C)c(C)c12` was 6.51 µM [rising, single point].
